# Assay results taken from patent US20240299353A1, “COMPOSITIONS AND METHODS FOR TREATING […] 5-MEO-DMT” (Alvarius Pharmaceuticals Ltd., priority 2021, published 2024).
# For at least one compound, name, drawing or mass did not settle the structure.
# Test system: primary hippocampal neurons
# Assay: Antagonist pre-treatment studies of neuronal structural change, Sholl analysis
# Assay type: cell-based, rat
# Procedure: Primary hippocampal cultures were grown on 18 mm glass coverslips at a density of 1×10^6 cells as described. On 3 DIV all cells underwent a full medium change. […] On 4 DIV, all cells underwent a second full medium change. Cells in the combination group were treated with 2 μM 5-MeO-DMT for a further 24 hours with all other groups beginning a 24-hour treatment. After treatment was completed the cells were fixed and processed as described below.
# Based on the findings with other psychedelic drugs that share structural and behavioral similarities to 5-MeO-DMT we selected ANA-12 (Sigma), an antagonist of TrkB, the BDNF receptor, and rapamycin (ThermoFischer) an antagonist of the mammalian target of rapamycin (mTOR). Due to the affinity and known behavioral change induced by 5-MeO-DMT at the 5-HT1AR and 5-HT2AR we assessed their contribution to structural changes mediated by 5-MeO-DMT. The receptors were antagonized with WAY-100635 maleate (Tocris) or Ketanserin (Axxora), respectively. For all antagonist studies the antagonist under investigation was added 15 mins prior to drug treatment. […] ANA-12, Ketanserin and rapamycin were dissolved in dimethyl sulfoxide (DMSO) with a final concentration of 0.01-0.04% for treatment. WAY100635 was dissolved in sterile dH2O.
# After termination of drug treatment coverslips were processed and imaged as outlined for immunocytochemistry. In all instances NeuN antibody staining was used to visualize projections from the cell body. Images were analyzed using the Simple Neurite Tracer and Sholl analysis plug-ins for ImageJ Fiji. For the Sholl analysis circle radii of 2 μm increments were used. All images were taken and analyzed by an experimenter blinded to treatment conditions.
# Statistical Analysis—Data are represented as mean±SEM. Statistical analyses were performed using GraphPad Prism (version 5). For analyses involving comparison of three or more groups, a one-way ANOVA with Bonferroni's post-hoc test was utilized where appropriate. No statistics were calculated for the individual points of the Sholl plots, instead, statistical analyses were performed on the aggregate data, the area under the curve (AUC) of the Sholl plot. Secondary measurements were the Nmax, the maximum number of intersections measured by the Sholl analysis, which indicated the number of projections emanating from a neuron and the average length of primary neurites originating from the cell soma.
# [1] = rapamycin study, all treatment groups
structure (smiles),measurement,setting,value
CO[C@H]1C[C@@H]2CC[C@@H](C)[C@@](O)(O2)C(=O)C(=O)N2CCCC[C@H]2C(=O)O[C@H]([C@H](C)C[C@@H]2CC[C@@H](O)[C@H](OC)C2)CC(=O)[C@H](C)/C=C(\C)[C@@H](O)[C@@H](OC)C(=O)[C@H](C)C[C@H](C)/C=C/C=C/C=C/1C [rapamycin],neuronal structural complexity (normalised AUC),"meta-analysis, rapamycin pre-treatment",prevented the treatment-mediated increase in normalised AUC
same,normalised AUC of the Sholl plot,"rapamycin 100 nM, 15 min pre-treatment before 5-MeO-DMT or cocaine",prevented this increase in AUC
same,average neurite length,[1],unchanged between treatment groups
same,maximum number of intersections (Nmax),[1],unchanged between treatment groups
